Laboratory results published in paper PMC5425828.
For at least one entry, the source does not settle the construct or the ends of the probe. The comparison behind a weaker result is the experiment's own reference, which may not be listed here. Where a protein sequence is shown, tags need not be part of it.

Biological target: T1, Sco1678 (GntR-His) (Streptomyces coelicolor M145) (UniProt Q9AD89)
T1 sequence (looked up): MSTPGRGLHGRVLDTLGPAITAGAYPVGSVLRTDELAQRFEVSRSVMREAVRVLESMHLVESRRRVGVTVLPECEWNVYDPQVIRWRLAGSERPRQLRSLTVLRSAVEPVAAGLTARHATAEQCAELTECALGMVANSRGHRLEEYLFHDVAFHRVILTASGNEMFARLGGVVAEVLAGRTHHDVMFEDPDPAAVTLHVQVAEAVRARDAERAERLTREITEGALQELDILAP
Assay: EMSA
Settings: DNA not completely released, 20 mM Tris/HCl pH 7.5, 50 mM KCl, 10 mM MgCl2, 5% (v/v) glycerol, 0.5 mM EDTA, 25 min at 25 C, 0.2 pmol Cy5 probe, 0.93-4.18 pmol protein, 8% native PAGE, 1x TBE, recombinant protein, residues 1-233, protein details: C-terminal His6, label: Cy5, probe letters rebuilt from the primers and the …

AGCCAGTGGCGATAAGGTTGCTGCATCGCACTCTCGCTGTCTGCTGTCTTCGTCGACACCTGATGTCGACGCAACTGAAACTCATTAGTACGACAACTTCAAGAGTCTGTGACGTATAAGTCTGACTTTTTGTTCCCGTGACATGCCCCGTACGCTGAGTGCATGAGCACACCGGGCCGGGGGCTGCACGGCCGCGTACTGGACACCCTCGGCCCCGCGATCACAGCTTATCGCCACTGGCT (double strand) [gntR-gntK intergeneric region]
binding result (5 mM gluconate): binds more weakly | binding result (5 mM glucono-1,5-lactone): binds more weakly
